This note sets out measurements from PMC7593309, “Structural insights into Arabidopsis ethylene response factor 96 with an extended N-terminal binding to GCC box”.

Sequences of proteins named here, by UniProt entry; tags and fusion partners are left off.
UniProt Q9LSX0: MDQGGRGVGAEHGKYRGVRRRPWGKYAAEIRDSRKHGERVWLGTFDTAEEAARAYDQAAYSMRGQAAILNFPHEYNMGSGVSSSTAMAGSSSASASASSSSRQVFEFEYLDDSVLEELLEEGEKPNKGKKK

No constants are given. Whether binding was seen depends on the method and setting.

The target of this test is Arabidopsis thaliana Ethylene Response Factor 96 (Arabidopsis thaliana) (UniProt Q9LSX0). Nature of the test: SEC + other: dynamic light scattering; Superdex 75 in 30 mM HEPES pH 8.0, 500 mM NaCl, 10% glycerol; DLS of the purified protein at 1 mg/mL, 25 °C; both purified.

In the case of “Arabidopsis thaliana Ethylene Response Factor 96 (from UniProt Q9LSX0 1-131)”, the binding entry was “no binding”.
